“Also recorded” adds a separate entry of the source. For at least one compound, name, drawing or mass did not settle the structure.
Test system: P. aeruginosa MB5919 (WT)
Test: Anti-microbial treatment of P. aeruginosa infection on airway chip, WT strain
Assay type: cell-based, Pseudomonas aeruginosa
Conditions: PA 5919 WT; 50 and 500 μg/ml for 24 h

## C[C@@H](O)[C@H]1C(=O)N2C(C(=O)O)=C(SCCN=CN)C[C@H]12 [Imipenem]
  bacterial load by live imaging of fluorescent bacteria: clear reduction in bacterial load; also recorded: obvious reduction in bacterial load
